# Measured values as given in article PMC12194779, “Synergistic Insecticidal Activity of Plant Volatile Compounds: Impact on Neurotransmission and Detoxification Enzymes in Sitophilus zeamais” (Insects, 2025).
# Test system: Sitophilus zeamais
# Assay type: in vivo
# Details: topical, 24 h after exposure
row,Compound,"Contact Toxicity βi (±SD), slope of the mortality regression curve"
1,"C=C(C)[C@H]1CC=C(C)C(=O)C1 [Compound C3, S-(+)-Carvone]",0.12 (±0.015)
2,"C=C(C)[C@@H]1CC=C(C)C(=O)C1 [Compound C4, R-(−)-Carvone]",0.11 (±0.012)
3,"CC1=CC[C@@](O)(C(C)C)CC1 [Compound C5, R-(−)-Terpinen-4-ol]",0.25 (±0.035)
4,"CC1C(=O)CC2(C(C)C)CC12 (stereo not drawn) [Compound C6, α, β-Thujone (70:10)]",0.10 (±0.013)
5,"C=C(C)[C@@H]1CC[C@@H](C)C[C@H]1O [Compound C7, 1R,2S,5R-Isopulegol]",0.17 (±0.019)
6,"CC1(C)C(=O)[C@]2(C)CC[C@H]1C2 [Compound C8, 1R-(−)-Fenchone]",0.09 (±0.010)
7,"CCCCCCCC(C)=O [Compound C9, 2-Nonanone]",0.16 (±0.021)
8,"C=CCc1ccc(OC)cc1 [Compound C11, Estragole]",0.038 (±0.005)
9,"C=CCc1ccc(O)c(OC)c1 [Compound C26, Eugenol]",0.13 (±0.015)
10,"C=CC(C)(O)CCC=C(C)C (stereo not shown) [Compound C28, Linalool]",0.09 (±0.011)
11,"C/C=C/c1ccc(OC)cc1 [Compound C29, trans-Anethol]",0.06 (±0.008)
12,"CC(C)=CCC/C(C)=C/CO [Compound C30, Geraniol]",0.01 (±0.011)
13,"C=CCc1ccc2c(c1)OCO2 [Compound C32, Safrole]",0.03 (±0.003)
14,"CC(C)=CCC[C@@H](C)CC=O [Compound C33, Citronellal]",0.09 (±0.012)
15,"CCCCCCCC(=O)CCC [Compound C34, 4-Undecanone]",0.08 (±0.010)
16,"CCCCCCCCC(C)=O [Compound C35, 2-Decanone]",0.07 (±0.007)
17,"CCCCCCCCCC(C)=O [Compound C36, 2-Undecanone]",0.09 (±0.011)
18,"CC(=O)OC/C=C(\C)CCC=C(C)C [Compound C37, Geranyl acetate]",0.02 (±0.003)
19,"CC1(C)C(C=C(Cl)Cl)C1C(=O)OC(C#N)c1cccc(Oc2ccccc2)c1 (stereo not shown) [Cypermethrin, reference compound]",0.08 (±0.019)
